Test results from patent publication US20110172099A1, “Imidazole and Triazole Compounds, Their Use and Agents Containing the Same” (BASF SE, priority 2008, published 2011).
Some entries share one result that the patent states for a list of compounds.

Experiments:
Pyricularia oryzae = format: cell-based; settings: 31 ppm; day 7 after inoculation, 405 nm; active compound-free control = 100%
Septoria tritici = experiment: Example M1: Septoria leaf spot pathogen Septoria tritici in the microtiter test; format: cell-based; settings: 31 ppm; day 7 after inoculation, 405 nm; active compound-free control = 100%
Botrytis cinerea [1] = experiment: Example M2: gray mold pathogen Botrytis cinerea in the microtiter test; format: cell-based; settings: 31 ppm; day 7 after inoculation, 405 nm; relative to active compound-free control
Botrytis cinerea [2] = experiment: Example G1: gray mold on bell pepper leaves caused by Botrytis cinerea, 1 day protective application (greenhouse); format: in vivo; settings: 600 ppm, bell pepper seedlings, assessed visually after 5 days, untreated plants 90% infected

## CCCCC(Cc1ccc(Cl)cc1Cl)CC(C(O)C(C)(C)C)n1cncn1 (mixture of isomers) [I.A5]
Pyricularia oryzae
  relative growth: at most 13%

## CC(Cc1ccc(Cl)c(Cl)c1)CC(C(O)C(C)(C)C)n1cncn1 (mixture of isomers) [I.A6a/b]
Septoria tritici
  relative growth: at most 14%
Botrytis cinerea [1]
  relative growth: at most 14%

## CC(Cc1cc(Cl)cc(Cl)c1)CC(C(O)C(C)(C)C)n1cncn1 (mixture of isomers) [I.A7a/b]
Septoria tritici
  relative growth: at most 14%
Pyricularia oryzae
  relative growth: at most 13%

## CC(Cc1ccc(C(C)C)cc1)CC(C(O)C(C)(C)C)n1cncn1 (mixture of isomers) [I.A8]
Septoria tritici
  relative growth: at most 14%
Pyricularia oryzae
  relative growth: at most 13%

## CC(Cc1cc(F)ccc1F)CC(C(O)C(C)(C)C)n1cncn1 (mixture of isomers) [I.A26a]
Septoria tritici
  relative growth: at most 14%
Botrytis cinerea [1]
  relative growth: at most 14%

## CC(Cc1cc(F)ccc1F)CC(C(O)C(C)(C)C)n1cncn1 (mixture of isomers) [I.A26b]
Botrytis cinerea [2]
  infection: at most 15%

## CC(Cc1ccc(F)c(F)c1)CC(C(O)C(C)(C)C)n1cncn1 (mixture of isomers) [I.A27b]
Botrytis cinerea [2]
  infection: at most 15%

## CC(Cc1cc(F)cc(Cl)c1)CC(C(O)C(C)(C)C)n1cncn1 (mixture of isomers) [I.A28b]
Botrytis cinerea [2]
  infection: at most 15%

## CC(Cc1ccc(F)cc1F)CC(C(O)C(C)(C)C)n1cncn1 (mixture of isomers) [I.A30a]
Botrytis cinerea [2]
  infection: at most 15%

## CC(Cc1c(F)cccc1Cl)CC(C(O)C(C)(C)C)n1cncn1 (mixture of isomers) [I.A31a]
Septoria tritici
  relative growth: at most 14%
Botrytis cinerea [1]
  relative growth: at most 14%

## CC(CCC(C(O)C(C)(C)C)n1cncn1)c1ccc(F)cc1F (mixture of isomers) [I.A35a]
Botrytis cinerea [1]
  relative growth: at most 14%
Pyricularia oryzae
  relative growth: at most 13%

## CC(CCC(C(O)C(C)(C)C)n1cncn1)c1ccccc1F (mixture of isomers) [I.A36a]
Botrytis cinerea [1]
  relative growth: at most 14%
Pyricularia oryzae
  relative growth: at most 13%

## CC(C)(C)C(O)C(CCCc1ccc(Cl)cc1Cl)n1cncn1 (racemic) [I.A11b]
Septoria tritici
  relative growth: at most 14%

## CC(C)(C)C(O)C(CCCc1ccccc1F)n1cncn1 (racemic) [I.A12a]
Septoria tritici
  relative growth: at most 14%
Botrytis cinerea [1]
  relative growth: at most 14%

## CC(C)(C)C(O)C(CCCc1ccccc1Cl)n1cncn1 (racemic) [I.A14a]
Septoria tritici
  relative growth: at most 14%
Botrytis cinerea [1]
  relative growth: at most 14%

## Cc1ccccc1CCCC(C(O)C(C)(C)C)n1cncn1 (racemic) [I.A15b]
Septoria tritici
  relative growth: at most 14%
Botrytis cinerea [1]
  relative growth: at most 14%

## Cc1cccc(CCCC(C(O)C(C)(C)C)n2cncn2)c1 (racemic) [I.A16b]
Septoria tritici
  relative growth: at most 14%
Botrytis cinerea [1]
  relative growth: at most 14%

## COc1ccc(CCCC(C(O)C(C)(C)C)n2cncn2)cc1 (racemic) [I.A17a]
Septoria tritici
  relative growth: at most 14%
Botrytis cinerea [1]
  relative growth: at most 14%

## CC(C)(C)C(O)C(CCCc1cccc(Cl)c1)n1cncn1 (racemic) [I.A18b]
Septoria tritici
  relative growth: at most 14%
Botrytis cinerea [1]
  relative growth: at most 14%

## CC(C)(C)C(O)C(CCCc1ccc(F)c(F)c1)n1cncn1 (racemic) [I.A19a]
Septoria tritici
  relative growth: at most 14%
Pyricularia oryzae
  relative growth: at most 13%

## CC(C)(C)C(O)C(CCCc1ccc(F)c(F)c1)n1cncn1 (racemic) [I.A19b]
Botrytis cinerea [1]
  relative growth: at most 14%

## CC(C)(C)C(O)C(CCCc1cc(F)cc(F)c1)n1cncn1 (racemic) [I.A20a]
Septoria tritici
  relative growth: at most 14%
Botrytis cinerea [1]
  relative growth: at most 14%

## CC(C)(C)C(O)C(CCCc1cc(Cl)ccc1F)n1cncn1 (racemic) [I.A21a]
Septoria tritici
  relative growth: at most 14%
Botrytis cinerea [1]
  relative growth: at most 14%

## CC(C)(C)C(O)C(CCCc1cccc(Cl)c1Cl)n1cncn1 (racemic) [I.A23a]
Septoria tritici
  relative growth: at most 14%
Botrytis cinerea [1]
  relative growth: at most 14%

## CC(C)(C)C(O)C(CCCc1cc(F)ccc1F)n1cncn1 (racemic) [I.A24a]
Septoria tritici
  relative growth: at most 14%
Botrytis cinerea [1]
  relative growth: at most 14%

## CC(C)(C)C(O)C(CCCc1cc(F)ccc1F)n1cncn1 (racemic) [I.A24b]
Botrytis cinerea [2]
  infection: at most 15%

## CC(C)(C)C(O)C(CCCc1cccc(F)c1F)n1cncn1 (racemic) [I.A25a]
Septoria tritici
  relative growth: at most 14%
Botrytis cinerea [1]
  relative growth: at most 14%

## CC(C)(C)C(O)C(CCCc1cccc(F)c1F)n1cncn1 (racemic) [I.A25b]
Botrytis cinerea [2]
  infection: at most 15%

## CC(C)(CCC(C(O)C(C)(C)C)n1cncn1)c1cccc(Cl)c1 (racemic) [I.A37a]
Septoria tritici
  relative growth: at most 14%

## CC(C)c1ccc(C(C)CCC(C(O)C(C)(C)C)n2cncn2)cc1 (centres unmarked) [I.A9]
Septoria tritici
  relative growth: at most 14%
Botrytis cinerea [1]
  relative growth: at most 14%

## CC(C)(C)C(O)C(CCCc1c(F)cccc1F)n1cncn1 (centres unmarked) [I.A10]
Septoria tritici
  relative growth: at most 14%
Botrytis cinerea [1]
  relative growth: at most 14%

## CC(C)(C)C(O)C(CCCc1ccc(Cl)cc1F)n1cncn1 (centres unmarked) [I.A22a]
Septoria tritici
  relative growth: at most 14%
Botrytis cinerea [1]
  relative growth: at most 14%

## Cc1cccc(CC(C)CC(C(O)C(C)(C)C)n2cncn2)c1 (centres unmarked) [I.A32]
Septoria tritici
  relative growth: at most 14%
Botrytis cinerea [1]
  relative growth: at most 14%

## CC(C)(CCC(C(O)C(C)(C)C)n1cncn1)c1ccc(Cl)cc1 (centres unmarked) [I.A33]
Botrytis cinerea [1]
  relative growth: at most 14%
Pyricularia oryzae
  relative growth: at most 13%

## CC(C)(CCC(C(O)C(C)(C)C)n1cncn1)c1ccc(F)cc1 (centres unmarked) [I.A34]
Septoria tritici
  relative growth: at most 14%
Botrytis cinerea [1]
  relative growth: at most 14%

## CC(Cc1ccc(F)cc1Cl)CC(C(O)C(C)(C)C)n1cncn1 (centres unmarked) [I.A38]
Septoria tritici
  relative growth: at most 14%
Botrytis cinerea [1]
  relative growth: at most 14%
